Data taken from publication PMC8213057, “Targeting ALK2: An Open Science Approach to Developing Therapeutics for the Treatment of Diffuse Intrinsic Pontine Glioma” (Journal of Medicinal Chemistry, 2020).

Amino acid sequences for entries named in this document (tags omitted). A change or cut given only in a name is not applied to a line headed by its entry.
UniProt Q00535, whole entry: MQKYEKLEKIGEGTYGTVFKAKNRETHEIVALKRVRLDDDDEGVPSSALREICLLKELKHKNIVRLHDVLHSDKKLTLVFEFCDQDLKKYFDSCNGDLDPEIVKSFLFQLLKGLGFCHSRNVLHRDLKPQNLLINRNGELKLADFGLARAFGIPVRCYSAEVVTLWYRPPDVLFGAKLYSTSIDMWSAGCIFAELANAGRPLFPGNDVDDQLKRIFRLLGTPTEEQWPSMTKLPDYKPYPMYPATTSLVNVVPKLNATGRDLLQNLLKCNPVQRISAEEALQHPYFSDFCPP
UniProt Q12851: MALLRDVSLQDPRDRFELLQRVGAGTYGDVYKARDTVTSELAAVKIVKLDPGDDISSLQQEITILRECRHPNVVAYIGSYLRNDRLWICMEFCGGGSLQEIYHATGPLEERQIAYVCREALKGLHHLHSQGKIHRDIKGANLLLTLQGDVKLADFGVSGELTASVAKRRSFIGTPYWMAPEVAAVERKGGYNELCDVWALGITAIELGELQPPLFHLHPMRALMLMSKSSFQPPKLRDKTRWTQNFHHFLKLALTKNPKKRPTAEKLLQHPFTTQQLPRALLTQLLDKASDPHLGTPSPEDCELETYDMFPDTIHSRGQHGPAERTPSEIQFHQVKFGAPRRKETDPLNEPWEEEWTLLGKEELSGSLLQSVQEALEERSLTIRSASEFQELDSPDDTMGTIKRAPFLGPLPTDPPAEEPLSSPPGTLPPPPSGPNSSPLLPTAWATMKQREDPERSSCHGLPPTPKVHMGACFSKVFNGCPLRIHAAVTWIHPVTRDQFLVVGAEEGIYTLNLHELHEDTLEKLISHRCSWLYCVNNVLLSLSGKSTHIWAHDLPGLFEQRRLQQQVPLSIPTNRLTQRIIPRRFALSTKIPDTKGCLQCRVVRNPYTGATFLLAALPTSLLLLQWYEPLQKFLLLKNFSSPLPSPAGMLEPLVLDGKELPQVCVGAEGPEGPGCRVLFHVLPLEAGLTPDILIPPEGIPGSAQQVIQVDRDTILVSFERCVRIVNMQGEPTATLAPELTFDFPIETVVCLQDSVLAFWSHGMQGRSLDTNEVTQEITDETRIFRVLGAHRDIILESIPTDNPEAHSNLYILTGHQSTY
UniProt Q8IVH8: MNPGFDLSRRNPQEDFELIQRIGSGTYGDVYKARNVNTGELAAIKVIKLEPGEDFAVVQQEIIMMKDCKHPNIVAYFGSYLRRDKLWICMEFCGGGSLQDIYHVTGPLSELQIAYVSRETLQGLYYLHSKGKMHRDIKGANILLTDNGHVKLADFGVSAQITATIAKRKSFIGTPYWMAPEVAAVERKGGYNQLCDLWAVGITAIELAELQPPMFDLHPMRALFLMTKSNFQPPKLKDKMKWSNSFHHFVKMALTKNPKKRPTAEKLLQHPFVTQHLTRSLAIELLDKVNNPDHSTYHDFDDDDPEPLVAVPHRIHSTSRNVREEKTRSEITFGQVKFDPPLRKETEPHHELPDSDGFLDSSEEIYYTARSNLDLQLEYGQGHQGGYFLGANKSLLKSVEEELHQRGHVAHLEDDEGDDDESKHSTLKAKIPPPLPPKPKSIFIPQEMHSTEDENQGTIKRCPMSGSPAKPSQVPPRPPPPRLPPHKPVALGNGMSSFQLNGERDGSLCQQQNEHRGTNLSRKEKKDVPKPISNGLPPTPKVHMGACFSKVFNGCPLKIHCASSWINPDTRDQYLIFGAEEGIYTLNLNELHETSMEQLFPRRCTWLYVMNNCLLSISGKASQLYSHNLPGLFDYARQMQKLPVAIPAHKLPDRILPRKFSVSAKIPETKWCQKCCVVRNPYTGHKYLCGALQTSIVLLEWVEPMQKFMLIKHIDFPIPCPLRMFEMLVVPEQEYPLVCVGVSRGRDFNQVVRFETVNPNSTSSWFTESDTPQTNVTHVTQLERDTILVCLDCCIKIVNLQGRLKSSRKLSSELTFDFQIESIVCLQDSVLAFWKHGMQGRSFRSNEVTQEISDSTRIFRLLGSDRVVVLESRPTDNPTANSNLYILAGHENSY
UniProt P49841: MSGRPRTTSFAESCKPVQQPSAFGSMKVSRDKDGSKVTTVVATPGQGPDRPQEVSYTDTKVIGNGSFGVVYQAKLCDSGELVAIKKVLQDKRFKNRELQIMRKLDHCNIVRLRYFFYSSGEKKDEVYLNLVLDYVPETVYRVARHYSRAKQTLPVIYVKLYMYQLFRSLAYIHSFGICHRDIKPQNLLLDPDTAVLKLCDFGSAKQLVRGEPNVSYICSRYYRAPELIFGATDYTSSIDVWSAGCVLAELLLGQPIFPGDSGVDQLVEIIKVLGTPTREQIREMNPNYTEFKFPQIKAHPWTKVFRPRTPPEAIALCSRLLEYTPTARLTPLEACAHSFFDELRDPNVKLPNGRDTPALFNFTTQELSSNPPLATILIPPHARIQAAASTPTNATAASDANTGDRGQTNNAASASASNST
UniProt Q08881: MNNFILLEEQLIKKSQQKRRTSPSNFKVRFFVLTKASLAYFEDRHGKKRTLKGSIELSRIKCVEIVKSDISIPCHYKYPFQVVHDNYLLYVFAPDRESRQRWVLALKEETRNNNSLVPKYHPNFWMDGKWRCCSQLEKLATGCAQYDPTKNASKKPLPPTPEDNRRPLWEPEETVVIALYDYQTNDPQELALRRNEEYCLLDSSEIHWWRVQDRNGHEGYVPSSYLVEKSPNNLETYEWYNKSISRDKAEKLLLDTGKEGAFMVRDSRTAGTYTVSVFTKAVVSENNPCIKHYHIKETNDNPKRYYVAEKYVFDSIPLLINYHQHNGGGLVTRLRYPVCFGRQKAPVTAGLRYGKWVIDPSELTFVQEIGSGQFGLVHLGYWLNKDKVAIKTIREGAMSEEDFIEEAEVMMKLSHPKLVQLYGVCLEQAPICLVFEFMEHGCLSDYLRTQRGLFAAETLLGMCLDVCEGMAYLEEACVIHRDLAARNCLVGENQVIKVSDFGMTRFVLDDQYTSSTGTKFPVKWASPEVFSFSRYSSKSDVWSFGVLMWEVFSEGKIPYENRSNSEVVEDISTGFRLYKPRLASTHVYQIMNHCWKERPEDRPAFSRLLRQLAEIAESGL
UniProt P43403, whole entry, species assumed: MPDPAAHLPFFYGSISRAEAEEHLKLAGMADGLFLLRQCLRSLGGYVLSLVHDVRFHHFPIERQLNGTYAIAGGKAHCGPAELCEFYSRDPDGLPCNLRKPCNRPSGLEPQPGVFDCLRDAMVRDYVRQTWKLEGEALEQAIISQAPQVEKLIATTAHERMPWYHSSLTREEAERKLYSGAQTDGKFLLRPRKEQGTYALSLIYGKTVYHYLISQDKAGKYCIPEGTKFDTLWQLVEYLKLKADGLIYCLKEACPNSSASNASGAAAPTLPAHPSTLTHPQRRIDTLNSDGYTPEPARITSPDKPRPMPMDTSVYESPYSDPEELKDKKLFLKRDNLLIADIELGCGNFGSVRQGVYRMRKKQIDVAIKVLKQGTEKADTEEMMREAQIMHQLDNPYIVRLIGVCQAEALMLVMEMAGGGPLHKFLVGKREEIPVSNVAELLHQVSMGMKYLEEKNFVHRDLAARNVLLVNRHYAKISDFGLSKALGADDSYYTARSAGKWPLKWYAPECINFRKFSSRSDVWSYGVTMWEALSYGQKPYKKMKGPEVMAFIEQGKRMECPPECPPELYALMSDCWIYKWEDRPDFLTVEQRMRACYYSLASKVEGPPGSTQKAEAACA
UniProt P48729: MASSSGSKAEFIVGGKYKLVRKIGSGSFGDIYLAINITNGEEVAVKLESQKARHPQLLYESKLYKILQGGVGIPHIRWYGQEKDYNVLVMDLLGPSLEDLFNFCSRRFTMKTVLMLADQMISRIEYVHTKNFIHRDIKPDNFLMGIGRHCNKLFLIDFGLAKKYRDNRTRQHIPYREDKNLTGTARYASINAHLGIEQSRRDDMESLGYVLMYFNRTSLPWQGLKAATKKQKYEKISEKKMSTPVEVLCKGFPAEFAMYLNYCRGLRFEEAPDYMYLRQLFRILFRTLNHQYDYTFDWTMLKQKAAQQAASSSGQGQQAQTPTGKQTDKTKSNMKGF
UniProt Q9UEE5: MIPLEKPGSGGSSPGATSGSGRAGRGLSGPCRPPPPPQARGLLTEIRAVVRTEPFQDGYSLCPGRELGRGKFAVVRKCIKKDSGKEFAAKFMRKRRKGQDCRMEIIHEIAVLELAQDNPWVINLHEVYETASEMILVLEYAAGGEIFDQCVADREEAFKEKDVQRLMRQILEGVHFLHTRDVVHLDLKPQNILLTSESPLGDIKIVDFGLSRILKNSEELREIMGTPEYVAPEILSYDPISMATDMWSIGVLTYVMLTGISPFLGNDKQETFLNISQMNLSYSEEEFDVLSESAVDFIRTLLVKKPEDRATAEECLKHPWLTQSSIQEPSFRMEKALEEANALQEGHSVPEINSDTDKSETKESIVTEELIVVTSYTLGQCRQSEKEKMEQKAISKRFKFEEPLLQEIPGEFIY
UniProt P53779: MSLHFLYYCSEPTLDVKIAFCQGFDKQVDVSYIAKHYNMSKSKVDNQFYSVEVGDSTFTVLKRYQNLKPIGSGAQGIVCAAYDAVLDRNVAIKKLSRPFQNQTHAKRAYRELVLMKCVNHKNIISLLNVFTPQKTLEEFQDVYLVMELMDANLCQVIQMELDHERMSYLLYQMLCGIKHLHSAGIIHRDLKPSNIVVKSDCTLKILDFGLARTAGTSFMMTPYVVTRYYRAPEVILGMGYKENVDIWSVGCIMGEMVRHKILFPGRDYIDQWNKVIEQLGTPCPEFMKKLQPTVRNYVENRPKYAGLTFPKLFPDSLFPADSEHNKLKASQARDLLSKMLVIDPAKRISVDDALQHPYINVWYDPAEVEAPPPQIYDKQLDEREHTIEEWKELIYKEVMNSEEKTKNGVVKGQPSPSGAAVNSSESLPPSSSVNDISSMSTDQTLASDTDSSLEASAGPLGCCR
UniProt Q8TDX7: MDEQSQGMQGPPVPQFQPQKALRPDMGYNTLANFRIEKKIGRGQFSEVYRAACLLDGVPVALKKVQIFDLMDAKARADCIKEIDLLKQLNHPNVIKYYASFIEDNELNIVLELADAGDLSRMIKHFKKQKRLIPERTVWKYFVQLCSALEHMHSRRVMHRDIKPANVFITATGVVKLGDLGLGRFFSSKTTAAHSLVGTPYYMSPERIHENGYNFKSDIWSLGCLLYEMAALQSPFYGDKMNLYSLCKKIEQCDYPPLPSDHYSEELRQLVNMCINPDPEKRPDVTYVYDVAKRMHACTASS
UniProt P11309, whole entry: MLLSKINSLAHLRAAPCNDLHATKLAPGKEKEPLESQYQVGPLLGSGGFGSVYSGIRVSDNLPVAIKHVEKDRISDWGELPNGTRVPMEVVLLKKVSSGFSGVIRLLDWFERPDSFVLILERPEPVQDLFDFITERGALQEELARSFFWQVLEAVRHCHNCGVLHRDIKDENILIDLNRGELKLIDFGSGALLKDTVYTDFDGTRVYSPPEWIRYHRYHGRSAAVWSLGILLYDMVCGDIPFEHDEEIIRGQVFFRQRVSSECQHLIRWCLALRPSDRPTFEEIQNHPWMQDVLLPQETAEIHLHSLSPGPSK
UniProt Q8IYT8, whole entry, species assumed: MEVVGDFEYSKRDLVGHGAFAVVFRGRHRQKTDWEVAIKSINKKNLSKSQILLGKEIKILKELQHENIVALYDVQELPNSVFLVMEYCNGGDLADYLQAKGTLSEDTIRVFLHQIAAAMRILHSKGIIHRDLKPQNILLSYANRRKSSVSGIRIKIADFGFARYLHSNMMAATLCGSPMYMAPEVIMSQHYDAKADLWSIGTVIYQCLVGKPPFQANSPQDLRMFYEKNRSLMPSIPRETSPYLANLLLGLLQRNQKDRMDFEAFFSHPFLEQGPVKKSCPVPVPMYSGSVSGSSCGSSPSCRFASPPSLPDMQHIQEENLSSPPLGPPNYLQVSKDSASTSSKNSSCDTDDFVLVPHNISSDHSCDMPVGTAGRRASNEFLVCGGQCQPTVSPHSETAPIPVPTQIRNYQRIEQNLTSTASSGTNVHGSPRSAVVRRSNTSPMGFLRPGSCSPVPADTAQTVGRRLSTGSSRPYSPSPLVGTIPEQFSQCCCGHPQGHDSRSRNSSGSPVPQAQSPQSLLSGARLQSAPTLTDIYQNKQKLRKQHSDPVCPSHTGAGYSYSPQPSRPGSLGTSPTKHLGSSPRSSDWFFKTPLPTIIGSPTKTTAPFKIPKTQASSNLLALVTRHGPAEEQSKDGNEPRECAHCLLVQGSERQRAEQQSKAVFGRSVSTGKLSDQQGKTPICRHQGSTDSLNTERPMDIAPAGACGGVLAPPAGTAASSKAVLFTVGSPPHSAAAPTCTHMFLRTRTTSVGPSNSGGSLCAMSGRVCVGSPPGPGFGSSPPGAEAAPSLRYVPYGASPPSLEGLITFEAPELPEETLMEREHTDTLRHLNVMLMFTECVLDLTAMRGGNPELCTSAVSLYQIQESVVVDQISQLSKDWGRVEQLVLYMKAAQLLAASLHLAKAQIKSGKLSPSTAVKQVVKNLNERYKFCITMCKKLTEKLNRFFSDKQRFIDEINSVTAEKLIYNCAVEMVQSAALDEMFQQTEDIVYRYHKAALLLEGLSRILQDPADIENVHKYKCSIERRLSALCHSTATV

Experiments:
[1] = target: ASK1/MAP3K5 (Homo sapiens, UniProt Q99683); conditions: 1 μM; Run 1, Run 2
[2] = target: T1, CDK1/cyclin B (Homo sapiens, UniProt P06493); conditions: 1 μM; Run 1, Run 2
[3] = target: CDK5/p35 (Homo sapiens, UniProt Q00535); conditions: 1 μM; Run 1, Run 2
[4] = target: CSK (Homo sapiens, UniProt P41240); conditions: 1 μM; Run 1, Run 2
[5] = target: ERK2/MAPK1 (Homo sapiens, UniProt P28482); conditions: 1 μM; Run 1, Run 2
[6] = target: FES/FPS (Homo sapiens, UniProt P07332); conditions: 1 μM; Run 1, Run 2
[7] = target: GCK/MAP4K2 (Homo sapiens, UniProt Q12851); conditions: 1 μM; Run 1, Run 2
[8] = target: GLK/MAP4K3 (Homo sapiens, UniProt Q8IVH8); conditions: 1 μM; Run 1, Run 2
[9] = target: GSK3b (Homo sapiens, UniProt P49841); conditions: 1 μM; Run 1, Run 2
[10] = target: ITK (Homo sapiens, UniProt Q08881); conditions: 1 μM; Run 1, Run 2
[11] = target: LRRK2 (Homo sapiens, UniProt Q5S007); conditions: 1 μM; Run 1, Run 2
[12] = target: PKCa (Homo sapiens, UniProt P17252); conditions: 1 μM; Run 1, Run 2
[13] = target: SGK1 (Homo sapiens, UniProt O00141); conditions: 1 μM; Run 1, Run 2
[14] = target: T2, SGK3/SGKL (Homo sapiens, UniProt Q96BR1); conditions: 1 μM; Run 1, Run 2
[15] = target: SIK1 (Homo sapiens, UniProt P57059); conditions: 1 μM; Run 1, Run 2
[16] = target: TESK2 (Homo sapiens, UniProt Q96S53); conditions: 1 μM; Run 1, Run 2
[17] = target: TRKC (Homo sapiens, UniProt Q16288); conditions: 1 μM; Run 1, Run 2
[18] = target: T3, TYK2 (Homo sapiens, UniProt P29597); conditions: 1 μM; Run 1, Run 2
[19] = target: YSK4/MAP3K19 (Homo sapiens, UniProt Q56UN5); conditions: 1 μM; Run 1, Run 2
[20] = target: ZAP70 (Homo sapiens, UniProt P43403); conditions: 1 μM; Run 1, Run 2
[21] = target: ABL2/ARG (Homo sapiens, UniProt P42684); assay: biochemical; conditions: read-out: % enzyme activity, 1 μM; Run 1, Run 2
[22] = target: BTK (Homo sapiens, UniProt Q06187); assay: biochemical; conditions: read-out: % enzyme activity, 1 μM; Run 1, Run 2
[23] = target: c-Src (Homo sapiens, UniProt P12931); assay: biochemical; conditions: read-out: % enzyme activity, 1 μM; Run 1, Run 2
[24] = target: T1, CDK1/cyclin B; assay: biochemical; conditions: read-out: % enzyme activity, 1 μM; Run 1, Run 2
[25] = target: CDK3/cyclin E (Homo sapiens, UniProt Q00526); assay: biochemical; conditions: read-out: % enzyme activity, 1 μM; Run 1, Run 2
[26] = target: CK1a1 (Homo sapiens, UniProt P48729); assay: biochemical; conditions: read-out: % enzyme activity, 1 μM; Run 1, Run 2
[27] = target: CLK3 (Homo sapiens, UniProt P49761); assay: biochemical; conditions: read-out: % enzyme activity, 1 μM; Run 1, Run 2
[28] = target: DRAK1/STK17A (Homo sapiens, UniProt Q9UEE5); assay: biochemical; conditions: read-out: % enzyme activity, 1 μM; Run 1, Run 2
[29] = target: ERK7/MAPK15 (Homo sapiens, UniProt Q8TD08); assay: biochemical; conditions: read-out: % enzyme activity, 1 μM; Run 1, Run 2
[30] = target: FLT1/VEGFR1 (Homo sapiens, UniProt P17948); assay: biochemical; conditions: read-out: % enzyme activity, 1 μM; Run 1, Run 2
[31] = target: IKKa/CHUK (Homo sapiens, UniProt O15111); assay: biochemical; conditions: read-out: % enzyme activity, 1 μM; Run 1, Run 2
[32] = target: JNK3 (Homo sapiens, UniProt P53779); assay: biochemical; conditions: read-out: % enzyme activity, 1 μM; Run 1, Run 2
[33] = target: MARK3 (Homo sapiens, UniProt P27448); assay: biochemical; conditions: read-out: % enzyme activity, 1 μM; Run 1, Run 2
[34] = target: MEKK3 (Homo sapiens, UniProt Q99759); assay: biochemical; conditions: read-out: % enzyme activity, 1 μM; Run 1, Run 2
[35] = target: NEK7 (Homo sapiens, UniProt Q8TDX7); assay: biochemical; conditions: read-out: % enzyme activity, 1 μM; Run 1, Run 2
[36] = target: OSR1/OXSR1 (Homo sapiens, UniProt O95747); assay: biochemical; conditions: read-out: % enzyme activity, 1 μM; Run 1, Run 2
[37] = target: PIM1 (Homo sapiens, UniProt P11309); assay: biochemical; conditions: read-out: % enzyme activity, 1 μM; Run 1, Run 2
[38] = target: PKCmu/PRKD1 (Homo sapiens, UniProt Q15139); assay: biochemical; conditions: read-out: % enzyme activity, 1 μM; Run 1, Run 2
[39] = target: T2, SGK3/SGKL; assay: biochemical; conditions: read-out: % enzyme activity, 1 μM; Run 1, Run 2
[40] = target: TSSK3/STK22C (Homo sapiens, UniProt Q96PN8); assay: biochemical; conditions: read-out: % enzyme activity, 1 μM; Run 1, Run 2
[41] = target: T3, TYK2; assay: biochemical; conditions: read-out: % enzyme activity, 1 μM; Run 1, Run 2
[42] = target: ULK2 (Homo sapiens, UniProt Q8IYT8); assay: biochemical; conditions: read-out: % enzyme activity, 1 μM; Run 1, Run 2
[43] = target: ZIPK/DAPK3 (Homo sapiens, UniProt O43293); assay: biochemical; conditions: read-out: % enzyme activity, 1 μM; Run 1, Run 2

`COc1cc(-c2cncc(-c3ccc(N4CCN(C(C)C)CC4)cc3)c2C)cc(F)c1C(N)=O` [Compound 26b, 2-Fluoro-4-(5-(4-(4-isopropylpiperazin-1-yl)phenyl)-4-methylpyridin-3-yl)-6-methoxybenzamide] was tested, and the “% enzyme activity” value [1] was 99.17%, the “% enzyme activity” value [2] was 89.90% and the “% enzyme activity” value [3] was 95.08%. For the same molecule, the “% enzyme activity” value [4] was 92.13%, the “% enzyme activity” value [5] was 88.25% and the “% enzyme activity” value [6] was 96.09%. For the same molecule, the “% enzyme activity” value [7] was 67.48%, the “% enzyme activity” value [8] was 83.55% and the “% enzyme activity” value [9] was 96.28%. For the same molecule, the “% enzyme activity” value [10] was 95.85%, the “% enzyme activity” value [11] was 73.65% and the “% enzyme activity” value [12] was 85.60%. The “% enzyme activity” value [13] was 90.95%, the “% enzyme activity” value [14] was 83.45% and the “% enzyme activity” value [15] was 87.47%. The “% enzyme activity” value [16] was 93.23%, the “% enzyme activity” value [17] was 117.99% and the “% enzyme activity” value [18] was 100.78%. The “% enzyme activity” value [19] was 101.54%, the “% enzyme activity” value [20] was 98.79% and the remaining activity at 1 µM [21] was 98.8%. It also gave a remaining activity at 1 µM [22] of 97.7%, a remaining activity at 1 µM [23] of 98.3% and a remaining activity at 1 µM [24] of 90.3%. It also gave a remaining activity at 1 µM [25] of 85.8%, a remaining activity at 1 µM [26] of 99.3% and a remaining activity at 1 µM [27] of 92.8%. The remaining activity at 1 µM [28] was 97%, the remaining activity at 1 µM [29] was 90.5% and the remaining activity at 1 µM [30] was 98.2%. The remaining activity at 1 µM [31] was 85.6%, the remaining activity at 1 µM [32] was 98.8% and the remaining activity at 1 µM [33] was 93%. The remaining activity at 1 µM [34] was 99.8%, the remaining activity at 1 µM [35] was 96.8% and the remaining activity at 1 µM [36] was 96.1%. It also gave a remaining activity at 1 µM [37] of 106%, a remaining activity at 1 µM [38] of 93.3% and a remaining activity at 1 µM [39] of 86%. It also gave a remaining activity at 1 µM [40] of 95.1%, a remaining activity at 1 µM [41] of 103% and a remaining activity at 1 µM [42] of 81.1%. It also gave a remaining activity at 1 µM [43] of 108%.
